PubChem BioAssay AID504774 – Drosophila RNAi Screening Center | 2011

Assay: 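Genes required for cells to withstand methyl methanesulphonate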 (primary screen)
Cell system: Drosophila Kc167 cells
Reagents: long dsRNA against Drosophila genes, about 0.25 µg dsRNA per well
Duration: about 6 days: 3 days knock-down, then 3 days with or without MMS
Treatment: methyl methanesulphonate 0.004% (w/v) for 3 days after knock-down
Read-out: 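Viability in wells given MMS, read as ATP luminescence, normalised by quantiles plate by plate and averaged across replicates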
Direction: mean viability with MMS: higher = more surviving cells after MMS
The deposit covers about 23,000 reagents; this is a random part of those that have a named target and a result. 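Values are quantile-normalised luminescence on an arbitrary scale; higher means more cells surviving MMS.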 Reagents against one gene are numbered here. Not all columns of the deposit are shown. No sequences are given here.

target gene | reagent no. | mean viability with MMS
ase (asense) | 1 | 3.37e6
Prosbeta4R1 (Proteasome beta4 subunit-related 1) | 1 | 3.41e6
brv2 (brivido-2) | 1 | 3.46e6
Ssk (Snakeskin) | 1 | 3.67e6
CG15651 | 1 | 3.41e6
CG43672 | 1 | 3.67e6
CG43672 | 2 | 3.42e6
CG32568 | 1 | 3.56e6
Pop2 | 1 | 3.50e6
CG13403 | 1 | 3.59e6
Evi5 (Ecotropic viral integration site 5) | 1 | 3.53e6
CG9222 | 1 | 3.68e6
CG31867 | 1 | 3.56e6
dind (diamond) | 1 | 3.44e6
CG12432 (retired record) | 1 | 3.56e6
CG34292 | 1 | 3.66e6
CG11444 | 1 | 3.52e6
snRNA:U1:95Cc (small nuclear RNA U1 at 95C c) | 1 | 3.24e6
Trxr2 (Thioredoxin reductase 2) | 1 | 3.28e6
CG6236 | 1 | 3.47e6
sxe2 (sex-specific enzyme 2) | 1 | 3.72e6
CG34276 | 1 | 3.66e6
Amyrel (Amylase related) | 1 | 3.49e6
lqfR (liquid facets-Related) | 1 | 3.52e6
lqfR (liquid facets-Related) | 2 | 3.23e6
CR33283 (pseudo) | 1 | 3.47e6
trem (trade embargo) | 1 | 3.39e6
Dyro (Dpt-YFP repressor by overexpression) | 1 | 3.27e6
CG14630 | 1 | 3.61e6
CG14630 | 2 | 3.39e6
Tsf1 (Transferrin 1) | 1 | 3.47e6
wnd (wallenda) | 1 | 3.50e6
wnd (wallenda) | 2 | 3.44e6
wnd (wallenda) | 3 | 3.52e6
CG32436 | 1 | 3.52e6
CG32436 | 2 | 3.60e6
red (red Malpighian tubules) | 1 | 3.06e6
red (red Malpighian tubules) | 2 | 3.35e6
CCDC151 (Coiled-coil domain containing protein 151) | 1 | 3.49e6
CG32266 | 1 | 3.87e6
mms4 (Methyl methanesulfonate sensitivity 4) | 1 | 3.45e6
Pdf (Pigment-dispersing factor) | 1 | 1.80e6
CG4872 | 1 | 3.91e6
Tip60 (Tat interactive protein 60kDa) | 1 | 3.01e6
csw (corkscrew) | 1 | 3.38e6
csw (corkscrew) | 2 | 3.11e6
